In PubChem BioAssay AID445 (National Center for Advancing Translational Sciences (NCATS), 2006):
The list shows a part of the results. The main result of the screen is listed elsewhere. These columns were measured beside it and carry no call. Compounds called inactive in the main read-out are mostly missing here. Potencies come from curve fits of mixed quality, noted in brackets.

assay: IkB Signaling; conditions: ABC-DLBCL IkBa-CBG/CBR dual luciferase ratio (green luciferase fused to IkBa over red control in OCI-Ly3 lymphoma cells), 4 h; measured here: control luc red channel unless noted
Summary of the method: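 Luminescence ratio of IκBα-fused green versus native red beetle luciferase in OCI-Ly3 cells, 4 h post-doxycycline with compound; red signal alone, scaled from basal (0%) to zero light (-100%), flagged nonspecific or cytotoxic effects.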

SMILES | AC50
COc1ccccc1OCc1csc(NC(=O)c2ccco2)n1 | 12.6 µM [falling, partial curve]
Cc1cc(NC(=O)N2CC=C(c3c[nH]c4ccccc34)CC2)ccc1Br | 7.94 µM [falling, partial curve]
O=C(Cn1c(=O)n(-c2ccc(F)cc2)c(=O)c2sc3ccccc3c21)N1CCCC1 | 25.1 µM [falling, single point]
Cc1ccc(CSC2=Nc3ccccc3C3=NC(CCC(=O)N4CCN(c5ccccc5)CC4)C(=O)N23)cc1 (stereo not drawn) | 39.8 µM [falling, single point]
COc1cc(CNC(=O)c2cc(-c3ccccc3)n[nH]2)cc(OC)c1OC | 39.8 µM [falling, single point]
COc1ccc(-n2nc(C(=O)N3CCC(C)CC3)c3c4ccccc4n(C)c3c2=O)cc1Cl | 20 µM [falling, partial curve]
COc1cccc(CNC(=O)Cn2cc3c(n2)-c2c(oc(C(=O)N4CCCC4)c2C)CC3)c1OC | 25.1 µM [falling, single point]
O=C(NCc1ccc2c(c1)CCN2C(=O)c1ccc(F)cc1)c1ccc(Br)o1 | 12.6 µM [falling, partial curve]
Cc1cc(C)c(NC(=O)Cn2nc3c(cc2=O)CCCC3)c(C)c1 | 25.1 µM [rising, single point] [measured here: IkB-luc green channel]
CCOc1ccc(NC(=O)N(CCN2CCOCC2)Cc2ccc3c(c2)CCCN3CC)cc1 | 20 µM [falling, partial curve, poor fit]
CCCS(=O)(=O)c1ncc(Cl)c(C(=O)N(Cc2ccccc2)Cc2ccco2)n1 | 5.01 µM [falling, partial curve]
CCOc1ccc(-c2oc3ccccc3c(=O)c2O)cc1OCC | 2 µM [rising, partial curve]
CCOC(=O)c1c(NC(=O)c2nn(CC)cc2Br)c(C#N)cn1-c1ccccc1 | 15.8 µM [falling, partial curve]
COc1ccccc1NC(=O)N1CC(=O)Nc2sc3c(c2C1c1ccccc1)CCCC3 (stereo not drawn) | 15.8 µM [falling, partial curve]
COc1ccccc1NC(=O)C1=C(C)Nc2c(C(=O)Nc3ccc(F)cc3)cnn2C1c1ccc(Cl)cc1 (stereo not drawn) | 7.94 µM [falling, partial curve]
COc1ccc2c(Sc3ccccc3)c(C(=O)NCc3cccc(OC)c3OC)[nH]c2c1 | 10 µM [falling, partial curve]
CCOc1ccc(CCNC(=O)CCCc2nnc3n(CC(C)C)c(=O)c4sccc4n23)cc1 | 15.8 µM [falling, partial curve]
CCOC(=O)c1cc(S(=O)(=O)Nc2ccc(OC)c(Cl)c2)[nH]n1 | 20 µM [falling, partial curve]
CCc1nc2sc3ccccc3c(=O)c2c(=O)n1Cc1ccco1 | 2.51 µM [falling, full curve]
Cc1ccc(C(c2nnnn2CCc2ccccc2)N2CCSCC2)cc1 (stereo not drawn) | 25.1 µM [falling, partial curve]
COc1ccccc1Oc1nc2c(c(=O)n(C)c(=O)n2C)n1Cc1cccc(Br)c1 | 10 µM [falling, partial curve]

SMILES | AC50
CC(=O)Nc1ccc(S(=O)(=O)Nc2cccc(-c3ccc(N4CCC(C)CC4)nn3)c2)cc1 | 3.98 µM [falling, partial curve]
CCCc1noc(-c2ccc(N3CCCCC3)c([N+](=O)[O-])c2)n1 | 0.00631 µM [rising, full curve, poor fit]
Cc1nc2c(cnn2-c2ccccc2Cl)c(=O)n1-c1ccc(C(C)C)cc1 | 20 µM [falling, single point]
CCc1ccc(S(=O)(=O)c2nnn3c2nc(NCCc2ccccc2)c2sccc23)cc1 | 7.94 µM [falling, full curve]
COc1cccc(-c2nc(SCC(=O)Nc3ccc4c(c3)OCO4)c(-c3ccccc3)[nH]2)c1 | 6.31 µM [falling, partial curve]
CN(C)S(=O)(=O)N(CC(=O)NCCSCc1ccccc1Cl)c1ccccc1 | 15.8 µM [falling, partial curve]
CCCCC(=O)c1c(O)c2ccccc2oc1=O | 3.16 µM [falling, full curve]
COc1ccc(CCn2cc3c(c2-c2ccccc2Br)c(=O)n(C)c(=O)n3C)cc1OC | 39.8 µM [falling, single point]
Cc1noc(C)c1COC(=O)c1cccc(S(=O)(=O)N2CCCCCC2)c1 | 7.94 µM [falling, partial curve]
COc1cccc(-c2cn3c(n2)sc2cc(C(=O)NCc4cccs4)ccc23)c1 | 25.1 µM [falling, single point]
COc1ccc2oc(=O)cc(CN3CCN(C(=O)c4ccccc4F)CC3)c2c1 | 39.8 µM [falling, single point]
O=C(Nc1nc(-c2cccs2)cs1)c1cccc(S(=O)(=O)N2CCCCC2)c1 | 3.16 µM [falling, full curve, poor fit]
Cc1[nH]nc2c1-c1nc3ccccc3nc1C(C)(C)C2 | 12.6 µM [falling, partial curve]
Cc1ccc(C)c(Cn2c(=O)c3c(nc4n3CCN4c3ccc(F)cc3)n(C)c2=O)c1 | 3.16 µM [falling, single point]
CCn1c(CN2CCC(C)CC2)nc2cc(NC(=O)c3ccccc3[N+](=O)[O-])ccc21 | 0.794 µM [falling, partial curve]
CCOC(=O)c1c(C)[nH]c(CCC(=O)NCCCN2CCN(c3cccc(Cl)c3)CC2)c1C | 31.6 µM [falling, single point]
CCOc1ccc(-n2c(Cc3ccccc3)nnc2SCc2nc(-c3ccccc3C)no2)cc1 | 31.6 µM [falling, partial curve]
COc1cc(-c2nc(-c3cccc(C)c3)no2)cc(OC)c1OC | 12.6 µM [falling, partial curve]
CCS(=O)(=O)N1CCc2cc(C(=O)N3CCN(c4cccc(C(F)(F)F)c4)CC3)ccc21 | 25.1 µM [falling, single point]
Cc1ccc(NC(=O)C(=O)NCC(c2cccnc2)N2CCOCC2)cc1C (stereo not drawn) | 12.6 µM [falling, partial curve]
C=COCCNC(=O)Nc1ccc(Cl)c(Cl)c1 | 25.1 µM [falling, single point]

SMILES | AC50
Oc1cccc(C(Nc2ccccn2)c2ccc3cccnc3c2O)c1Cl (stereo not drawn) | 31.6 µM [falling, partial curve]
COc1ccc(OC)c(-c2cc(C(=O)N3CCCc4ccccc43)no2)c1 | 12.6 µM [falling, partial curve]
Fc1cccc(-c2nc(-c3ccncc3)no2)c1 | 3.16 µM [rising, full curve]
Cc1ccc(C(=O)c2oc3ccccc3c2NC(=O)c2cc(=O)c3ccccc3o2)cc1 | 20 µM [rising, partial curve]
CCOC(=O)Cc1ccc(NC(=O)n2ncc3c(C)cccc32)cc1 | 39.8 µM [falling, partial curve]
COc1ccc(OC)c(NC(=O)c2cc(-c3ccc(C)cc3O)n[nH]2)c1 | 3.16 µM [falling, partial curve]
Clc1ccccc1OCc1nc(-c2ccccn2)no1 | 12.6 µM [falling, partial curve]
COC(=O)c1ccc(C2Nc3c(C)cc(C)cc3C3C=CCC32)cc1 (stereo not drawn) | 6.31 µM [falling, partial curve]
COc1ccc(C(CNC(=O)COc2ccc(C)c(C)c2)N2CCCCC2)cc1 (stereo not drawn) | 31.6 µM [falling, single point]
O=C(Nc1cccc(S(=O)(=O)c2cccc(NC(=O)C3CC3)c2)c1)C1CC1 | 10 µM [falling, partial curve]
COc1ccc(NC(=O)CSc2nc3nc(C)cc(C)n3n2)cc1 | 1.58 µM [rising, full curve, poor fit]
Cc1c(CNCc2ccc(Cl)cc2)c(C(=O)O)c(C)n1Cc1ccc(F)cc1 | 3.16 µM [falling, full curve]
c1cc(OCC2CO2)cc(OCC2CO2)c1 (stereo not drawn) | 15.8 µM [rising, partial curve] [measured here: IkB-luc green channel]
O=C(Nc1cccc(NC(=O)N2CCN(c3ccccc3)CC2)c1)N1CCN(c2ccccc2)CC1 | 3.16 µM [falling, partial curve]
Cn1c(=O)oc2cc(S(=O)(=O)N3CCCC(C(=O)N4CC=C(c5ccccc5)CC4)C3)ccc21 (stereo not drawn) | 3.98 µM [falling, full curve, poor fit]
COc1ccccc1OCC(=O)Nc1ccccn1 | 7.94 µM [falling, partial curve]
CCC1CCCCN1S(=O)(=O)c1ccc(NC(=O)c2cc(=O)c3ccccc3o2)cc1 (stereo not drawn) | 5.01 µM [falling, partial curve, poor fit]
CCN(CCCNC(=O)c1cc2c(=O)[nH]c3ccccc3c2s1)c1ccccc1 | 20 µM [rising, partial curve]
CCCCOc1ccc(C2c3c(-c4ccccc4O)n[nH]c3C(=O)N2Cc2ccncc2)cc1OC (stereo not drawn) | 31.6 µM [falling, single point]
CC(=O)c1cccc(NC(=O)Cn2c(SCC(=O)Nc3ccc(F)cc3)nc3ccccc32)c1 | 10 µM [falling, partial curve]
COc1ccc(CCN2C(=O)N(c3ccc(F)cc3)C(=O)C2CC(=O)Nc2ccccc2)cc1 (stereo not drawn) | 15.8 µM [falling, partial curve]

Shown with each value named: entries from further up
COC(=O)c1ccc(C2Nc3c(C)cc(C)cc3C3C=CCC32)cc1 (stereo not drawn)
  AC50: 6.31 µM [falling, partial curve]
Cc1c(CNCc2ccc(Cl)cc2)c(C(=O)O)c(C)n1Cc1ccc(F)cc1
  AC50: 3.16 µM [falling, full curve]
CC(=O)c1cccc(NC(=O)Cn2c(SCC(=O)Nc3ccc(F)cc3)nc3ccccc32)c1
  AC50: 10 µM [falling, partial curve]
